We go through one substance from patent US20150239980A1.

By UniProt entry, the sequences of proteins in these tests, tags left out. Where a name states a change or a piece, a line headed by the entry shows the natural chain unless it says otherwise.
UniProt Q16363: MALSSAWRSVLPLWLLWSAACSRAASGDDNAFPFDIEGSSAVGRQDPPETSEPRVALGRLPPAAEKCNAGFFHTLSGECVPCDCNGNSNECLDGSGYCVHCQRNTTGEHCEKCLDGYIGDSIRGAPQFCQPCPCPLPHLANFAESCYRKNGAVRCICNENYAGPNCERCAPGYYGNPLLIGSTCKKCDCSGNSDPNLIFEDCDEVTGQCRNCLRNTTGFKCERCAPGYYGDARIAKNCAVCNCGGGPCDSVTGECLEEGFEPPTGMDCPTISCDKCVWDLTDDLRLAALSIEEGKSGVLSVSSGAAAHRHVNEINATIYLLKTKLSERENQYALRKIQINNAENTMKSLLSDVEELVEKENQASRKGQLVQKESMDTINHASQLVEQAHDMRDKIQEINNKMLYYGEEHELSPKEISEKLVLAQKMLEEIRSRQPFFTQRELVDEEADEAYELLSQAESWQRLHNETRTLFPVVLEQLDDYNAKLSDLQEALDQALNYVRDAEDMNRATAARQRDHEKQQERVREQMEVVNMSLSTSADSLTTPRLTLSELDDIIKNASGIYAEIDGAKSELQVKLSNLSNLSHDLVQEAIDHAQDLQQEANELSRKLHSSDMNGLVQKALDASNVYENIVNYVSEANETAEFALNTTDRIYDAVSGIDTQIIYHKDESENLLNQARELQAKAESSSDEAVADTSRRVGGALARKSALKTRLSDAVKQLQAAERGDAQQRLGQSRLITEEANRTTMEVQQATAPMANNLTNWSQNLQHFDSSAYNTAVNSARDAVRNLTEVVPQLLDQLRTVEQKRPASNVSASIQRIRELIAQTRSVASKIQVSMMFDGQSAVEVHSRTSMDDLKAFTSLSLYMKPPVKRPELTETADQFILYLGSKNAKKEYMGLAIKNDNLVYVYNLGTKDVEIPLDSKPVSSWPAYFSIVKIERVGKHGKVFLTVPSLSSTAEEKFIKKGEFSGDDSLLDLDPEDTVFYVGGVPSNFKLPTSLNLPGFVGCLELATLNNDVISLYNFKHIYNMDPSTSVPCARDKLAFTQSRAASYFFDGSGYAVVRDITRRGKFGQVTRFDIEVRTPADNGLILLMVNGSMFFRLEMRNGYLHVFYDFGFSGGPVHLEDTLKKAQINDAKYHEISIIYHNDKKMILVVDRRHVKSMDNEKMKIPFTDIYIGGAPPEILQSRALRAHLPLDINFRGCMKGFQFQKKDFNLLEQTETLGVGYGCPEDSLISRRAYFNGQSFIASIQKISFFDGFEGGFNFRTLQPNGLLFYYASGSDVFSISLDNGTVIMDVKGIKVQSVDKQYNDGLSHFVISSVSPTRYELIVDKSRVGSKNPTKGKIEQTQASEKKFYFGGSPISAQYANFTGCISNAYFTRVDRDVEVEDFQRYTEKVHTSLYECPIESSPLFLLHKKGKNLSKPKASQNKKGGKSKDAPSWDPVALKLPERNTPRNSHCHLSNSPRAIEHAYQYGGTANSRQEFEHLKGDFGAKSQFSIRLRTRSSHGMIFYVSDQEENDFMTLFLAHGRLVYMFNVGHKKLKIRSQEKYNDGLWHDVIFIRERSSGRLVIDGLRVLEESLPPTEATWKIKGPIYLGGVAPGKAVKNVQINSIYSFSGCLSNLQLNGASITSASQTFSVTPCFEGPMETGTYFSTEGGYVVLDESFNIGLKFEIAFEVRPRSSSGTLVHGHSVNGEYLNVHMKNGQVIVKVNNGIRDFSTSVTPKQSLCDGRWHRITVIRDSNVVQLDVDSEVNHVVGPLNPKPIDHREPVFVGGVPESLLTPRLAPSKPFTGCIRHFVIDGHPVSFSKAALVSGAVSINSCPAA

These are yes or no findings as the source states them, for the method shown. Some entries that bind do so weakly or less than the wild type.

For this assay, the target named is T1, mouse MCAM expressed on transfected CHO cells (mouse) (UniProt Q8R2Y2).
T1 sequence (looked up): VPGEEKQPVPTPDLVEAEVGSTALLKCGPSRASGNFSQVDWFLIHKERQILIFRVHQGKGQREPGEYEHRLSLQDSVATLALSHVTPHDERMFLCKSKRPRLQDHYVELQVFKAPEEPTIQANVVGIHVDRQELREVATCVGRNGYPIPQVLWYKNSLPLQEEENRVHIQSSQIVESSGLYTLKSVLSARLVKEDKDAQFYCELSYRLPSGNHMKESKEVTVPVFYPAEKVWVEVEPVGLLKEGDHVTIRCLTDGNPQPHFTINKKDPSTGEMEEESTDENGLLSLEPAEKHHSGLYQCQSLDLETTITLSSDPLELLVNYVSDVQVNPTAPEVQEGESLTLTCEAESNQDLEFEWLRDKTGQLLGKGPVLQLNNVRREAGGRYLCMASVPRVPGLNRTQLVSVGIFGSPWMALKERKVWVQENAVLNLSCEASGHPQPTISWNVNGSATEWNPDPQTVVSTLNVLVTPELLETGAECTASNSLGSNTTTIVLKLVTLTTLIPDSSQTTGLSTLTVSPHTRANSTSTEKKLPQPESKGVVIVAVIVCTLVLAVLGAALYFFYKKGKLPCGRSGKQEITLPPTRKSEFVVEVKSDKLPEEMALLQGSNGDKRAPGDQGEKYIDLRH
Description: flow cytometry, mouse MCAM CHO cells, laminin 10 µg/ml, pan-laminin antibody.

For the substance “recombinant human laminin 411 (Biolamina) (from UniProt Q16363 25-1823; P07942 22-1786; P11047 34-1609) (ligand)”, the binding entry is listed as “binds”.
